These are yes or no findings as the source states them, for the method shown. Binding seen in cells or lysates may run through a third protein.

By UniProt entry, the sequences of proteins in these tests, tags left out. Residues count along the entry.
UniProt P16056, residues 25-931: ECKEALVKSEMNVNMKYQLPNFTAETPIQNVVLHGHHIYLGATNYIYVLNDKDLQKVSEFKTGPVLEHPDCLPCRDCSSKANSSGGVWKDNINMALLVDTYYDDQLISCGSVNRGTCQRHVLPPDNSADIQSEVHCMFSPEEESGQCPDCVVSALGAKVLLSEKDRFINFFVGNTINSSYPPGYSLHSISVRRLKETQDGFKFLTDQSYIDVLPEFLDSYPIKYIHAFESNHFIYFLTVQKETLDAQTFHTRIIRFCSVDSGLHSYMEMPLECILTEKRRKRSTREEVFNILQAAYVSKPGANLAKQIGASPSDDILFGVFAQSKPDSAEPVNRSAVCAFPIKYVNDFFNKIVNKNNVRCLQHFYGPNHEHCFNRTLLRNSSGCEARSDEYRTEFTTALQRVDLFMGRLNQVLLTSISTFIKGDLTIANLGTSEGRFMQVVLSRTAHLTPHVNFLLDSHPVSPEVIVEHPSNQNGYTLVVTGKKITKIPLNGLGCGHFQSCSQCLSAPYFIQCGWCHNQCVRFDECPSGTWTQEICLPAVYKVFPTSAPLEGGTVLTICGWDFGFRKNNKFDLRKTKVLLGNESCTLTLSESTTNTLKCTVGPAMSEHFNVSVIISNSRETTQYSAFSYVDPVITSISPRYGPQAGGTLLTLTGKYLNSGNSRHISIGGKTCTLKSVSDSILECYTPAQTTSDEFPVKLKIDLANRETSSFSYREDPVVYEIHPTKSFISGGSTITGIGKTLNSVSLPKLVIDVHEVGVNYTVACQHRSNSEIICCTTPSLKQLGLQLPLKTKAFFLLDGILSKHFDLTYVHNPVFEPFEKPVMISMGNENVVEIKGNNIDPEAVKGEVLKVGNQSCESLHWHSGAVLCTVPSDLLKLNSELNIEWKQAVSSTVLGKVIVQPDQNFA

This assay deals with soluble ectodomain fragment of mouse Met (residues 1-931) C-terminally fused with PA-tag (mouse) (UniProt P16056). The experiment in a line: pull-down; mouse Met ectodomain (1-931)-PA captured on beads with anti-PA antibody NZ-1, briefly washed; incubated with culture supernatants containing peptide-grafted Fc variants; elution with SDS buffer, SDS-PAGE, band intensity; only the target purified.

For the substance “control Fc protein (from UniProt P01857 104-330) (domain or fragment)”, the binding entry is “no binding”.

These data come from publication PMC11300919.
